In the supplement of paper PMC12819154, “High-throughput peptide-centric local stability assay extends protein–ligand identification to membrane proteins, tissues and bacteria” (Nature Structural & Molecular Biology, 2025):
Some of the results follow. Most values lie at the level of the controls, where differences are scatter.

Amino acid sequences for entries named in this document (tags omitted). A change or cut given only in a name is not applied to a line headed by its entry.
UniProt Q91WG4: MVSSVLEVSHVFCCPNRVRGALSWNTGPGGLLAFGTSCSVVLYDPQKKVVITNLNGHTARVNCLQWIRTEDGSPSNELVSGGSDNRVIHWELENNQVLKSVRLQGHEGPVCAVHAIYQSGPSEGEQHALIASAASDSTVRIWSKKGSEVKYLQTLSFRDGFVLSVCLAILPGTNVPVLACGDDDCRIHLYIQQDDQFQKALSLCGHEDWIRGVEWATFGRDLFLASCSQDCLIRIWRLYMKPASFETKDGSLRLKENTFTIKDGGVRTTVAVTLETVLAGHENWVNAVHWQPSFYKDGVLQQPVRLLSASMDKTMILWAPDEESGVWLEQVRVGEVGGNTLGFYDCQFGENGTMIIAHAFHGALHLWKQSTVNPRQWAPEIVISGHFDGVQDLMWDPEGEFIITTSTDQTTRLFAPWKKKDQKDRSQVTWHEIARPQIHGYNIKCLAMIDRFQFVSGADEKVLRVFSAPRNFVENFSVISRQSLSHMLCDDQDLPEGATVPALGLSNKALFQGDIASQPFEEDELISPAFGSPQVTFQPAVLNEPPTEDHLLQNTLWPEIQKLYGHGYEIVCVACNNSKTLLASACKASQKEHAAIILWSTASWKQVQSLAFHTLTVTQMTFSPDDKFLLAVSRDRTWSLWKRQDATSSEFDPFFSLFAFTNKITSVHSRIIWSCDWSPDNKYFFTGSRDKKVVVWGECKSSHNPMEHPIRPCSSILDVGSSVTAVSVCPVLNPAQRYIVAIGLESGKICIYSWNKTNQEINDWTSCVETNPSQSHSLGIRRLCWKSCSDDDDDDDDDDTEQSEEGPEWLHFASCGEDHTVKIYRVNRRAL
UniProt Q91WV7: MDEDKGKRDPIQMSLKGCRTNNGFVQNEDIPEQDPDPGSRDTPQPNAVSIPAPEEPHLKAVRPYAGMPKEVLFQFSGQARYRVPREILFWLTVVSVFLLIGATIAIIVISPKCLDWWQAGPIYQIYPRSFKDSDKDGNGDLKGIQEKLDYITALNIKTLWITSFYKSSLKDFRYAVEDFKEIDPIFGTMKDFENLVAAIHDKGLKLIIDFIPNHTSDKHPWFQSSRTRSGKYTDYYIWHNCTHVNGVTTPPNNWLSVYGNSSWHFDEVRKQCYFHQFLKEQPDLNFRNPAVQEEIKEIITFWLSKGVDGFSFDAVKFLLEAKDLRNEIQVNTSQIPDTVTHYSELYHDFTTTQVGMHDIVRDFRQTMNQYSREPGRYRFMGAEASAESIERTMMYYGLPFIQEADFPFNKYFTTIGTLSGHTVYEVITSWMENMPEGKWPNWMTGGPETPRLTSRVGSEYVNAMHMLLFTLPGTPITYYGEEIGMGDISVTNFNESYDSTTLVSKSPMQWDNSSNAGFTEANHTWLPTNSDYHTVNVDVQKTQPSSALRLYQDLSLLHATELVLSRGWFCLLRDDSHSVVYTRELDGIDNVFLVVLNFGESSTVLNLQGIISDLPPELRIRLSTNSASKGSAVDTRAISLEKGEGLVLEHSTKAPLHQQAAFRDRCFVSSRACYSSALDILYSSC
UniProt Q8VI47: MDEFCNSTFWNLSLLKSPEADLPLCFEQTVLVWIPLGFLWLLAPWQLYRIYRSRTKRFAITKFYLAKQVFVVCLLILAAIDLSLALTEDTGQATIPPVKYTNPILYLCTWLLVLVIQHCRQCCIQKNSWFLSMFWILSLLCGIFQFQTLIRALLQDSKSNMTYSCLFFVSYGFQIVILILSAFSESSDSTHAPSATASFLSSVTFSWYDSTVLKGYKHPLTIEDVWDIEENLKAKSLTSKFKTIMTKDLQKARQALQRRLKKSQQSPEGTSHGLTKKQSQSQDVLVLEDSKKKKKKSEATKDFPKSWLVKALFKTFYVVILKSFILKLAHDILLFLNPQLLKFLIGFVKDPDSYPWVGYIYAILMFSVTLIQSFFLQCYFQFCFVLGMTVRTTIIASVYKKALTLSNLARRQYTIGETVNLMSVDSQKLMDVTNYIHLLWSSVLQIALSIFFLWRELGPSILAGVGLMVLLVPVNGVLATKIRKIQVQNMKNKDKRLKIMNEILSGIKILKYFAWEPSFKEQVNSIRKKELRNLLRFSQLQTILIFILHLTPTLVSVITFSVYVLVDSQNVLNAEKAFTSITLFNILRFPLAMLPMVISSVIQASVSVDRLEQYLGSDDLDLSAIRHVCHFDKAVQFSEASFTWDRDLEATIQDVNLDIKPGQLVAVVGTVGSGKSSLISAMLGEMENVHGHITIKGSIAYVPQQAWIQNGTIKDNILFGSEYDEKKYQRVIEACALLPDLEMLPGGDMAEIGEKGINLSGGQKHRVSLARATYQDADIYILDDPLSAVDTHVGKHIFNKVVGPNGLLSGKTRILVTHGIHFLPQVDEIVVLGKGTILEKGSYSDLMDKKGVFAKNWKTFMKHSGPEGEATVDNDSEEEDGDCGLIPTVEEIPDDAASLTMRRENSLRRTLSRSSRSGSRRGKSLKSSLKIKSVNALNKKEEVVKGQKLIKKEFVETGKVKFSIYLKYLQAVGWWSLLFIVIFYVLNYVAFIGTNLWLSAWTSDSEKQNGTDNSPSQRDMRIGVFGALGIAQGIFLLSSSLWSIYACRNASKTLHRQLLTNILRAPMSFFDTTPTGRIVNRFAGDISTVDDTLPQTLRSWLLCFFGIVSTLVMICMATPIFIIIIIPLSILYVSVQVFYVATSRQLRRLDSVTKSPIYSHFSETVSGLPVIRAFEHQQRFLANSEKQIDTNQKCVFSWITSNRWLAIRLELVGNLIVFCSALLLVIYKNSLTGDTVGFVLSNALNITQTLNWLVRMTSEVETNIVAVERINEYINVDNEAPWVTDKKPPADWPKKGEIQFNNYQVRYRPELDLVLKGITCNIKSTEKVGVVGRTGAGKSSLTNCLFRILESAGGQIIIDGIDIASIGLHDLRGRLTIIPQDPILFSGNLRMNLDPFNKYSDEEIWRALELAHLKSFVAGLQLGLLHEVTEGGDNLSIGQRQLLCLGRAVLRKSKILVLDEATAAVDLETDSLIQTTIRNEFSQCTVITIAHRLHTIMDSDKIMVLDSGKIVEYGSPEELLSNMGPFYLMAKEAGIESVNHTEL
UniProt Q91X96: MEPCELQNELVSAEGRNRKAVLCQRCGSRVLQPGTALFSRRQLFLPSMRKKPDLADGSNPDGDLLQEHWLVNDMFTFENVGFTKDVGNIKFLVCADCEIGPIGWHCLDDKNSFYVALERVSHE
UniProt Q91YY4: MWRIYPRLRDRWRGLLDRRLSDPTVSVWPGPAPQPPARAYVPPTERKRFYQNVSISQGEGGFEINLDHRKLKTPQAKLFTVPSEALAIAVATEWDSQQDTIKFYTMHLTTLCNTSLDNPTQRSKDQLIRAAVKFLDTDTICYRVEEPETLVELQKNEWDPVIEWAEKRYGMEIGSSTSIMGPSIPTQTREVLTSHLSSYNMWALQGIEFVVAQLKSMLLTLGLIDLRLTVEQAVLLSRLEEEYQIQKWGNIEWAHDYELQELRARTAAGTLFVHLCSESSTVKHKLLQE
UniProt Q91VS8: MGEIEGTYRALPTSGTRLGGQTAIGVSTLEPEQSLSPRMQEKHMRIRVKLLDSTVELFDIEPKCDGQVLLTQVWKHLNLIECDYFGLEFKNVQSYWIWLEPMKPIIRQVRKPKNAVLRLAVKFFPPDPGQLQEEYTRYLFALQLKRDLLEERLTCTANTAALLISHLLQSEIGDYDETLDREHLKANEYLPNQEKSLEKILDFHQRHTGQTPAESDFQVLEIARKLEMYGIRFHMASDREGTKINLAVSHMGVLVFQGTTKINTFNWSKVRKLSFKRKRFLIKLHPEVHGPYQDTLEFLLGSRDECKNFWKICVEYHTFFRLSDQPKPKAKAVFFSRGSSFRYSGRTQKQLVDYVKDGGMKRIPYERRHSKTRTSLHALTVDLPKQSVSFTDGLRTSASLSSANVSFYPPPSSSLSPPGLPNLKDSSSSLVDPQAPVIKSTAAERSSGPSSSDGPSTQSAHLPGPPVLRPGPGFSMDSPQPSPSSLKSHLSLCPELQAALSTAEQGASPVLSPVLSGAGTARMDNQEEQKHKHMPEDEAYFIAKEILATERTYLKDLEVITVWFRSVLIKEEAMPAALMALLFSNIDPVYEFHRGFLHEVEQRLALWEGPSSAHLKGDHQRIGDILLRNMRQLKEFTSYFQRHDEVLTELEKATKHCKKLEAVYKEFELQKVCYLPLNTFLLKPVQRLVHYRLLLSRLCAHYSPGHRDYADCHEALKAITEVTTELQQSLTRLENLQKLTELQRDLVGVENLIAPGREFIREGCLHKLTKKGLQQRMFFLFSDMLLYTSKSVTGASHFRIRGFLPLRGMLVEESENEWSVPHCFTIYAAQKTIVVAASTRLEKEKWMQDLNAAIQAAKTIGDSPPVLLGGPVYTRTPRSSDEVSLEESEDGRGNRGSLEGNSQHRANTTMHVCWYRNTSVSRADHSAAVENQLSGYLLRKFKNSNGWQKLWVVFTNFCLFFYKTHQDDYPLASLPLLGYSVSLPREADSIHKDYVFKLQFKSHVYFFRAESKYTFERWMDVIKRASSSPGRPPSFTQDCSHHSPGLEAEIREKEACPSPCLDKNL
UniProt Q91WP6: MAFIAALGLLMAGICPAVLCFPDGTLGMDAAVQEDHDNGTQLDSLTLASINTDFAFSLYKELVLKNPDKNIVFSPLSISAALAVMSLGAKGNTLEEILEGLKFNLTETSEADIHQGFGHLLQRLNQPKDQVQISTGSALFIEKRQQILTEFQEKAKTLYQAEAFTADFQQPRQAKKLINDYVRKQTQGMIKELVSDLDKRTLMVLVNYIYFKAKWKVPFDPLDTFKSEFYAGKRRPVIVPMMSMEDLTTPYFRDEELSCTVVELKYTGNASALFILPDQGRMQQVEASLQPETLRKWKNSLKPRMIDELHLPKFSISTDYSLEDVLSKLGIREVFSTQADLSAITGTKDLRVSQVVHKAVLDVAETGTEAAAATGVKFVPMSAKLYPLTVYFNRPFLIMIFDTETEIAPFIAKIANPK
UniProt Q8VIJ6: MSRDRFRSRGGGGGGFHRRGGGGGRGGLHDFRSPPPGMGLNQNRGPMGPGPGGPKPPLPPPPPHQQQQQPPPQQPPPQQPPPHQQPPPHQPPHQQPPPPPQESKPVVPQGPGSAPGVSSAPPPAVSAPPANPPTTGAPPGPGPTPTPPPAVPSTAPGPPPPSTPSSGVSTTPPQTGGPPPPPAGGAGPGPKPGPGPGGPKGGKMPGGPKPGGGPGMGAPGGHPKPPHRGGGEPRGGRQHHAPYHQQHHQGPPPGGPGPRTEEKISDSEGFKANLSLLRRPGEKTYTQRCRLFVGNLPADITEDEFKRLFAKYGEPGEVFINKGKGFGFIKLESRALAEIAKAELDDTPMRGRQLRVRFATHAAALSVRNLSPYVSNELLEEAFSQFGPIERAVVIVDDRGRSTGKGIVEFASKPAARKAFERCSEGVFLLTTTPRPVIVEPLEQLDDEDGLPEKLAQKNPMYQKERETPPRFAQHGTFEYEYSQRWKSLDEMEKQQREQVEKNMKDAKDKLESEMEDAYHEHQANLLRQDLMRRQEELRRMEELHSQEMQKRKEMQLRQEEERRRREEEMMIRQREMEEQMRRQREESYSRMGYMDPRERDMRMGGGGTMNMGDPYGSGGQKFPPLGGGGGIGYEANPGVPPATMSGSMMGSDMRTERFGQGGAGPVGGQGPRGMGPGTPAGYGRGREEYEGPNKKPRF
UniProt Q91XL2: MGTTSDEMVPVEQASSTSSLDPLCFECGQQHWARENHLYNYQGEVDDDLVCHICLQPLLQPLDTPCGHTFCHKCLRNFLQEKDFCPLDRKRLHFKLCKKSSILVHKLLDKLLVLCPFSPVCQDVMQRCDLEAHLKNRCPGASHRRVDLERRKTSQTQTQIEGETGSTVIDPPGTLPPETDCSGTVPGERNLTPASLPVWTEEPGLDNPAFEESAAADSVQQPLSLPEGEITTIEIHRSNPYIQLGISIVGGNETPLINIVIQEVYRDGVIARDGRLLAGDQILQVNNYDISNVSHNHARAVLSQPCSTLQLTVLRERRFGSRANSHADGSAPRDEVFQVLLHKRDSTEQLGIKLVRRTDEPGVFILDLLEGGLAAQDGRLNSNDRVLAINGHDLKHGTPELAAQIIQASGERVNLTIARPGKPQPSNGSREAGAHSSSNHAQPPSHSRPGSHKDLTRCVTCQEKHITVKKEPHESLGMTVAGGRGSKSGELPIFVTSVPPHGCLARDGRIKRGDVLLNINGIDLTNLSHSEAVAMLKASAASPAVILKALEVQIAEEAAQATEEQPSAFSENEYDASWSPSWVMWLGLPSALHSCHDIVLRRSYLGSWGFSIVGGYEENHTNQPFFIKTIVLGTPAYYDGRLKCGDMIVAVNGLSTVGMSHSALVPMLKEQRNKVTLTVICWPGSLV

compound: CN[C@@H]1C[C@H]2O[C@@](C)([C@@H]1OC)n1c3ccccc3c3c4c(c5c6ccccc6n2c5c31)C(=O)NC4 [staurosporine]; assay: log2 fold change of tryptic peptide abundance, ligand vs vehicle (limited proteolysis) (log2 ratio); higher = more trypsin-susceptible (destabilized); conditions: ligand concentration: 20 uM; sample: mouse liver crude lysate; replicate design: treated separately

| Target | log2 fold change |
| --- | --- |
| UniProt Q91XU0 (peptide sequence: SHILYDR, peptide start residue: 483) | -0.103 |
| UniProt Q91WG4 (peptide sequence: CLAMIDR, peptide start residue: 445) | 0.564 |
| UniProt Q91WT8 (peptide sequence: DYAFVHFTSR, peptide start residue: 282) | -0.56 |
| UniProt Q91VN4 (peptide sequence: ASLTHEQQQSAR, peptide start residue: 163) | -0.139 |
| UniProt Q91YI4 (peptide sequence: RGLALDGQLK, peptide start residue: 287) | 0.243 |
| UniProt Q91WV7 (peptide sequence: EVLFQFSGQAR, peptide start residue: 70) | 0.306 |
| UniProt Q91VD9 (peptide sequence: LSVAGNCR, peptide start residue: 69) | -0.313 |
| UniProt Q91WU4 (peptide sequence: VAGLQPVLLQDRR, peptide start residue: 476) | -0.272 |
| UniProt Q8VHE0 (peptide sequence: AYAALTDEESRK, peptide start residue: 148) | -0.786 |
| UniProt Q8VHG0 (peptide sequence: ILNHENYGLSIAK, peptide start residue: 262) | -0.332 |
| UniProt Q8VI47 (peptide sequence: GYKHPLTIEDVWDIEENLK, peptide start residue: 215) | -0.61 |
| UniProt Q91ZJ5 (peptide sequence: EFPTVPLVK, peptide start residue: 423) | -0.764 |
| UniProt Q91WS4 (peptide sequence: AGLWTPEAVVEHPSAVR, peptide start residue: 41) | -0.198 |
| UniProt Q91X51 (peptide sequence: ANVEKPVK, peptide start residue: 61) | -0.237 |
| UniProt Q91VK4 (peptide sequence: IYLEENYER, peptide start residue: 122) | 0.17 |
| UniProt Q91VH6 (peptide sequence: IFILGPSHHVPLSR, peptide start residue: 74) | 0.192 |

| Target | log2 fold change |
| --- | --- |
| UniProt Q91W18 (peptide sequence: CDRPYSR, peptide start residue: 470) | -0.949 |
| UniProt Q91VM9 (peptide sequence: ADCKEEHDIPR, peptide start residue: 65) | 0.178 |
| UniProt Q91ZE5 (peptide sequence: EVESESTEVSHSTTHTK, peptide start residue: 613) | -0.257 |
| UniProt Q91X96 (peptide sequence: KAVLCQR, peptide start residue: 19) | 0.164 |
| UniProt Q8VHK1 (peptide sequence: AFSYLAGSPAAPPDPPRPK, peptide start residue: 776) | -0.22 |
| UniProt Q91VW5 (peptide sequence: TNELVCTSR, peptide start residue: 1247) | 0.412 |
| UniProt Q91YY4 (peptide sequence: TAAGTLFVHLCSESSTVK, peptide start residue: 266) | -0.214 |
| UniProt Q91VS8 (peptide sequence: KLEAVYKEFELQK, peptide start residue: 659) | -0.402 |
| UniProt Q91WP6 (peptide sequence: MIDELHLPK, peptide start residue: 305) | 0.152 |
| UniProt Q8VIJ6 (peptide sequence: ALAEIAKAELDDTPMRGR, peptide start residue: 335) | 0.745 |
| UniProt Q91Z31 (peptide sequence: DFGNSPLHR, peptide start residue: 430) | 0.119 |
| UniProt Q91XL2 (peptide sequence: DEVFQVLLHKR, peptide start residue: 334) | 0.497 |
| UniProt Q91YU3 (peptide sequence: FESEKLQIEKER, peptide start residue: 317) | 0.334 |
| UniProt Q91Y47 (peptide sequence: ERPGVYTNVAK, peptide start residue: 602) | 0.882 |
| UniProt Q91V88 (peptide sequence: GHTGEIGLDDVSLKR, peptide start residue: 544) | 0.858 |
